The source of these data is a melting point compilation (Tetko et al.).

For the compound `COC1C(OC(C)=O)CC(=O)OC(C)CC=CC=CC(=O)C(C)CC(CC=O)C1OC1OC(C)C(OC2CC(C)(O)C(OC(=O)CC(C)C)C(C)O2)C(N(C)C)C1O` (stereo unspecified), the melting point lay within 193 to 200 °C.
